The target in experiment [1] is CD79b on Raji, Daudi and MM1.s cell lines (human) (UniProt P40259). Put plainly: flow cytometry on Raji, Daudi and MM1.s cells, 5 µg/ml polatuzumab detected with anti-murine Fc secondary antibody-APC.
Experiment [2] shares this target. Put plainly: flow cytometry, cells stained with 5 µg/ml polatuzumab, anti-murine Fc secondary antibody conjugated to APC.
Experiment [3] deals with T1, Recombinant purified CD79b (R&D systems) (human, UniProt P40259 29-159).
T1 construct: Bought protein
T1 sequence: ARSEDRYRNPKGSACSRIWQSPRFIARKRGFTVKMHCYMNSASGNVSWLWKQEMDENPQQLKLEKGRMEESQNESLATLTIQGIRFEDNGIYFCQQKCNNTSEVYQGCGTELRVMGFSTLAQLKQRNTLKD
Briefly: SPR, Biacore 8K, antibody immobilised on CM5 chip, CD79b as analyte. For orientation: In SPR one partner is held on a chip, and binding of the other changes the refractive index at the surface.

For experiment [4], the target named is T1, Recombinant purified CD79b (R&D systems). Put plainly: SPR, Biacore 8K.

Positions count from the first letter of the chain named. No constants are given. Whether binding was seen depends on the method and setting. Some results given as binding are weak or reduced against the parent protein; the word gives no strength.

B1: Polatuzumab (antibody, V domains shown)
VH: EVQLVESGGGLVQPGGSLRLSCAASGYTFSSYWIEWVRQAPGKGLEWIGEILPGGGDTNYNEIFKGRATFSADTSKNTAYLQMNSLRAEDTAVYYCTRRVPIRLDYWGQGTLVTVSS
VL: DIQLTQSPSSLSASVGDRVTITCKASQSVDYEGDSFLNWYQQKPGKAPKLLIYAASNLESGVPSRFSGSGSGTDFTLTISSLQPEDFATYYCQQSNEDPLTFGQGTKVEIKR
notes: polatuzumab'; also called humanised anti-CD79b 2F2; anti-CD79b antibody polatuzumab
In the case of B1, the binding entry in experiment [1] and in experiment [2] was “binds” each time.

B2: 2E8 (antibody, mouse IgG2a, V domains shown)
VH: AVQLVESGGGLVQPKESLKISCAASGFTFSNAAMYWVRQAPGKGLEWVARIRTKPNNYATNYADSVKGRFTISRDDSKSMVYLQMDNLKTEDTAMYYCTYYDGSSYAMDAWGQGTSVTVSS
VL: DVVLTQTPVSLSVTLGDQASISCRSSQSLEYSDGYTYLDWYLQKPGQSPQLLIYEVSNRFSGVPDRFIGSGSGTDFTLKISRVEPEDLGVYYCFQATHDPYTFGAGTKLEIK
notes: also called 2E8 antibody; clone 2E8
Regarding B2, the binding result in experiment [3] and in experiment [4] was “binds” throughout.

B3: 3H2 (antibody, mouse IgG2a, V domains shown)
VH: AVQLVESGGGLVQPKESLKLSCAASGFTFSHTAMYWVRQAPGKGLECVARIRIQPKNYATYYADSVKGRFTISRDDSKSMVYLQMDNLKTEDTAMYYCTAAGFGFDYWGQGVMVTVSS
VL: B2 VL with Y35N, D39E, N58K, V90I, F94L, Y101F, A105S
notes: also called 3H2 antibody; clone 3H2
Take B3: the binding entry in experiment [3] and in experiment [4] was “binds” in each case.

B4: 7G4 (antibody, mouse IgG2a, V domains shown)
VH: B2 VH
VL: B2 VL with V56I
notes: also called 7G4 antibody; clone 7G4
For the molecule B4, the binding entry in experiment [3] and in experiment [4] was “binds” throughout.

The record behind these values is patent US20220273710A1 (AUTOLUS, published 2022).
